Source: article PMC11240976
No constants are given. Whether binding was seen depends on the method and setting. Binding seen in cells or lysates may run through a third protein. A result given as binding can be weak or reduced; the word gives no strength. Sequences can lack the tags named with a protein.

Biological target: Populus euphratica calcium-dependent protein kinase 21 fused to cYFP (Populus euphratica)
Experiment: split reporter; BiFC; PeCPK21 in pSPY-CE and AtNF-YC3 in pSPY-NE, Agrobacterium GV3101 infiltrated into tobacco (N. benthamiana) leaves, kept in the dark for 48 h; YFP fluorescence by confocal microscopy

B1: Arabidopsis nuclear transcription factor YC3 fused to nYFP (protein, UniProt Q9ZVL3 1-217)
chain: MDQQGQSSAMNYGSNPYQTNAMTTTPTGSDHPAYHQIHQQQQQQLTQQLQSFWETQFKEIEKTTDFKNHSLPLARIKKIMKADEDVRMISAEAPVVFARACEMFILELTLRSWNHTEENKRRTLQKNDIAAAVTRTDIFDFLVDIVPREDLRDEVLGGVGAEAATAAGYPYGYLPPGTAPIGNPGMVMGNPGAYPPNPYMGQPMWQQPGPEQQDPDN
binding: binds
